According to PMC9731449:
No constants are given. Whether binding was seen depends on the method and setting. For part of these data: In cells and extracts the contact can be indirect. Some binding calls cover weakened binding; strength is not graded here. Sequences can lack the tags named with a protein.

Assays:
Conditions in all cases: remark: other sources report otherwise
[1] = target: T1, PE15 (Rv1386) with an N-terminal His tag (Mycobacterium tuberculosis H37Rv), P9WIH1; experiment: native gel or EMSA
T1 chain: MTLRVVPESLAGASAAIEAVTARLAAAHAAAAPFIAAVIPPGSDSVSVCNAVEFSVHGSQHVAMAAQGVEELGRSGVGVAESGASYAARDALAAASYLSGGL

[2] = target: T1, PE15 (Rv1386) with an N-terminal His …; experiment: pull-down; […] (50 mM Tris pH 8.0, 150 NaCl, 10% glycerol); […]
[3] = target: T2, PPE20 (Rv1387) with a C-terminal Strep II tag (Mycobacterium tuberculosis H37Rv), P9WI23; experiment: as above
T2 chain: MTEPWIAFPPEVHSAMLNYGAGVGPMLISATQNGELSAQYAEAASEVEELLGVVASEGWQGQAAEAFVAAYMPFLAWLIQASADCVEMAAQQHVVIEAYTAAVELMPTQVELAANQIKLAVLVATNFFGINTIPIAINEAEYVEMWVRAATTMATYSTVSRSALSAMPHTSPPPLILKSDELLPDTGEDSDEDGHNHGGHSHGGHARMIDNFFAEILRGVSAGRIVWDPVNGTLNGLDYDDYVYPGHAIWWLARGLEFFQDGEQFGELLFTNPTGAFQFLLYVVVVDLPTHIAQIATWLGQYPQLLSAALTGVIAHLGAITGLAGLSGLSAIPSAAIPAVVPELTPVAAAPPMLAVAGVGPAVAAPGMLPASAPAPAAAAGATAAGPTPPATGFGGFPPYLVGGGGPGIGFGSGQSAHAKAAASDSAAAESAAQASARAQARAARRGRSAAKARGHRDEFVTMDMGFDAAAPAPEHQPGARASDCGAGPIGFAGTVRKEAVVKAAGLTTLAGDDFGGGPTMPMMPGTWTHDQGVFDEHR

B1: PPE20 (Rv1387) with a C-terminal Strep II tag, P9WI23 1-539 (protein)
chain: T2 chain
binding [1]: binds
binding [2]: binds

B2: PE15 (Rv1386) with an N-terminal His tag, P9WIH1 1-102 (protein)
chain: T1 chain
binding [3]: binds
